A short description of assay [1]: BSK_CASM3C_SRB: Viability Assessment in the BioMAP Diversity Plus: CASM3C Assay (AID 2283050).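 Note: total protein by SRB staining as cytotoxicity measure in parallel cultures; cells exposed to compound for 24 h.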 Particulars: primary human coronary artery smooth muscle cells.
Read-out in assay [2]: Matrix Metallopeptidase 1 (MMP1), MMP1 (gene 4312)
The assay can be described thus: BSK_hDFCGF_MMP1: BioMAP Diversity Plus: hDFCGF Assay for Matrix Metallopeptidase 1 (MMP1) Biomarker Activity (AID 2283064). Particulars: actives raise or lower the signal; primary human foreskin fibroblasts. A digest of the protocol:
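Primary human foreskin fibroblasts exposed to chemicals for 24 h; MMP1 measured by ELISA. Cytotoxicity tracked by SRB staining in parallel cultures; bidirectional fit relative to DMSO.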

Sequences of proteins named here, by UniProt entry; tags and fusion partners are left off.
UniProt P08684, whole entry, looked up: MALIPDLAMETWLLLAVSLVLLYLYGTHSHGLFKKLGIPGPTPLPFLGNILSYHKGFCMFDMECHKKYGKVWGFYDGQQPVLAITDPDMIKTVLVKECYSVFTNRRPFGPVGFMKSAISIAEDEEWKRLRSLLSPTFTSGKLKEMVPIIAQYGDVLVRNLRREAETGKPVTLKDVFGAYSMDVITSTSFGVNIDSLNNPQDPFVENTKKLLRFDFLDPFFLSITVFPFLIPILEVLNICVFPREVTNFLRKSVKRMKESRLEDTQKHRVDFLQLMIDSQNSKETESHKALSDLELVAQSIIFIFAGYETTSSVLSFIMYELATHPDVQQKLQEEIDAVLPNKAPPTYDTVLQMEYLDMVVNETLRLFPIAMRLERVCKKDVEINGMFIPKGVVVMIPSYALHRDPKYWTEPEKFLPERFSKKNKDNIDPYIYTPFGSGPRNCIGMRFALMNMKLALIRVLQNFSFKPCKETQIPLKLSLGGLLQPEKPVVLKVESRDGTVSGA

A short description of assay [3]: CEETOX_H295R_OHPREG: CeeTox H295R High-throughput Steroidogenesis Assay for OH-Pregnenolone (OHPREG) (AID 2283434). The note with it: actives raise or lower the signal.
Assay [4] is described as follows: CEETOX_H295R_CORTIC: CeeTox H295R High-throughput Steroidogenesis Assay for Corticosterone (CORTIC) (AID 2283437).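 Note: human H295R adrenal cells prestimulated with forskolin before chemical exposure; corticosterone secreted into medium quantified by mass spectrometry.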 Particulars: actives raise or lower the signal. The procedure, abridged: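 H295R adrenal cells prestimulated 48 hours with 10 uM forskolin, then exposed 48 hours to chemical in 0.1% DMSO. Corticosterone in medium measured by HPLC-MS/MS after MTBE extraction; MTT viability in the same wells; bidirectional fit versus DMSO.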

Read-out in assay [5]: Cytochrome P450 3A4 (Homo sapiens) (UniProt P08684)
As to the kind of experiment: LTEA_HepaRG_CYP3A4: Life Technologies and Expression Analysis (LTEA) Assay for CYP3A4 using HepaRG (AID 2283487). The note with it: actives raise or lower the signal; mRNA level, 48 h. A digest of the protocol:
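HepaRG, 48 h exposure, 8-pt CRC from 100 uM (half-log), 0.5% DMSO, duplicates; serum-free induction medium. Readout: CYP3A4 mRNA, qRT-PCR, ACTB/GAPDH/POLR2A normalization. Bidirectional fit vs DMSO.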

Read-out in assay [6]: Heat shock 70 kDa protein 1 (HSPA1A), gene 3303
The assay can be described thus: LTEA_HepaRG_HSPA1A: Life Technologies and Expression Analysis (LTEA) Assay for Heat shock 70 kDa protein 1 (HSPA1A) using HepaRG (AID 2283502). Particulars: actives raise or lower the signal; mRNA level, 48 h. A digest of the protocol: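 Human HepaRG cells in serum-free induction medium were exposed in duplicate for 48 h to 8 half-log concentrations, highest 100 uM, in 0.5% DMSO. HSPA1A mRNA read by TaqMan qRT-PCR, normalized to ACTB, GAPDH, POLR2A, fitted bidirectionally against DMSO.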

Read-out in assay [7]: Intercellular Adhesion Molecule 1 (ICAM1), ICAM1 (gene 3383)
As to the kind of experiment: LTEA_HepaRG_ICAM1: Life Technologies and Expression Analysis (LTEA) Assay for Intercellular Adhesion Molecule 1 (ICAM1) using HepaRG (AID 2283507). The note with it: actives raise or lower the signal; mRNA level, 48 h. A digest of the protocol: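 Using the human liver line HepaRG, compounds are tested in duplicate over 48 h at concentrations up to 100 uM. Expression is determined by TaqMan qRT-PCR, normalized to endogenous controls, and analysed relative to 0.5% DMSO vehicle.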

Read-out in assay [8]: Interleukin 6 Receptor (IL6R), IL6R (gene 3570)
The assay can be described thus: LTEA_HepaRG_IL6R: Life Technologies and Expression Analysis (LTEA) Assay for Interleukin 6 Receptor (IL6R) using HepaRG (AID 2283510). Particulars: actives raise or lower the signal; mRNA level, 48 h. The procedure, abridged:
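Differentiated HepaRG cells, plated 48 h, then exposed in duplicate for 48 h in serum-free induction medium to 8 half-log concentrations (top 100 uM, 0.5% DMSO). IL6R mRNA measured by TaqMan qRT-PCR, normalized to ACTB/GAPDH/POLR2A; bidirectional fit vs DMSO.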

Read-out in assay [9]: Keratin 19 (KRT19), KRT19 (gene 3880)
As to the kind of experiment: LTEA_HepaRG_KRT19: Life Technologies and Expression Analysis (LTEA) Assay for Keratin 19 (KRT19) using HepaRG (AID 2283512). The note with it: actives raise or lower the signal; mRNA level, 48 h. The procedure, abridged:
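Readout is qRT-PCR of KRT19 mRNA, normalized to ACTB, GAPDH and POLR2A, from HepaRG cells treated 48 h with eight-point half-log dilutions topping at 100 uM. Activity in either direction is scored relative to 0.5% DMSO vehicle.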

The nature of assay [10]: Tanguay_ZF_120hpf_AXIS_legacy: (Legacy) Oregon State University Tanguay Lab 120 Hour Post-fertilization zebrafish Assay for Body Axis Malformation (AID 2283635; active = hit-call score of the fitted dose curve at least 0.9, where 1 is the maximum;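 note: potency for an increased fraction of larvae scored with body axis malformation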). A digest of the protocol:
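Each dechorionated embryo was exposed alone from 6 hpf, with DMSO at 0.64% (vol/vol) and trimethyltin chloride 5 uM as positive control. Axis malformation was recorded at 120 hpf unless the embryo had died.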

The nature of assay [11]: CCTE_Simmons_CellTiterGLO_HEK293T: Viability Assessment in CCTE's Assays for Thyroperoxidase (TPO) Inhibition, Simmons Lab (AID 2283665; active = hit-call score of the fitted dose curve at least 0.9, where 1 is the maximum;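 note: cells exposed to compound for 24 h before readout; actives reduce ATP signal below DMSO vehicle meaning cytotoxicity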). A digest of the protocol: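 HEK293T cells in DMEM with 1% FBS, dosed 24 h at 37C with 8 concentrations, 5 nM–87.5 uM final, 0.5% DMSO. ATP measured by CellTiter Glo luminescence; loss of signal vs DMSO, three biological replicates.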
A short description of assay [12]: ACEA_AR_agonist_AUC_viability: ACEA Biosciences xCELLigence Real-Time Cell Analysis on Androgen Receptor Agonism for Viability (AID 2283775; active = hit-call score of the fitted dose curve at least 0.9, where 1 is the maximum;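 note: viability read 80 hours after compound addition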). A digest of the protocol:
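Real-time impedance tracking of 22Rv1 growth, readings every 5 min for 5 h then hourly; area-under-curve viability endpoint at 80 hours, relative to DMSO. Compounds at eight concentrations, 1:4 steps, top 100 uM, n = 2.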

Assay [13] can be described thus: TOX21_TR_RXR_BLA_Agonist_Followup_viability: Viability Assessment in the Tox21 Thyroid Hormone Receptor beta Retinoid X Receptor alpha (RXRa) Agonism Beta-lactamase (BLA) Follow-Up Assay (AID 2283970; active = hit-call score of the fitted dose curve at least 0.9, where 1 is the maximum). The text has this:
GeneBLAzer RXRa-UAS-bla HEK293T assay (RXRa-bla) (ThermoFisherScientific Catalog No. K1697) was run in qHTS 1536 well format as a secondary assay for specificity of response in the TOX21_TR_GH3_LUC_Agonist assay.TOX21_TR_RXR_BLA_Agonist_Followup_viability is a component of the TOX21_TR_RXR_BLA_Agonist_Followup assay. This component measures cell viability using the CellTiter-Glo Luciferase-coupled ATP quantitation.The assay component endpoint TOX21_TR_RXR_BLA_Agonist_Followup_viability was analyzed with bidirectional fitting relation to DMSO as the negative control and baseline of activity. Using a type of viability reporter, loss-of-signal activity can be used to understand changes in viability. […]
Cell Media Required: Growth (90% DMEM/F-12, 10% Fetal Bovine Calf Serum, 100U/ml Penicillin, 100 ug/ml Streptomycin), Assay (10ng/mL sodium selenite, 10 ug/mL humanapo-transferrin, 10 uM ethanolamine, 10 ug/mL insulin, 500 ug/mL bovine serum albumin (BSA))Assay Protocol: RXRa-bla cells were seeded at 2,500/well in 6 uL of the assay medium containing phenol red-free DMEM with 2% charcoal-stripped FBS in 1,536-well black-wall/clear-bottom plates (Greiner Bio-One North America) usinga Multidrop Combi dispenser. […] After 2-h incubation at room temperature, the fluorescence intensity was measured using an Envision plate reader (Perkin Elmer). Data were expressed as the ratio of 460:530 nm.

Assay [14] is described as follows: CCTE_Shafer_MEA_dev_bursting_electrodes_number: CCTE's Neural Network Formation Assay for Number of Bursting Electrodes, Shafer Lab (AID 2284043; active = hit-call score of the fitted dose curve at least 0.9, where 1 is the maximum;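 note: potency is for loss of bursting electrodes relative to DMSO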). The procedure, abridged:
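Primary rat cortical neurons plated on 16-electrode MEA wells, exposed from day 0 with compound renewed at DIV 5 and 9. Electrodes bursting ≥1 burst per 2 min counted on days 5, 7, 9 and 12; trapezoidal AUC across days, fitted for loss versus DMSO.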

Assay [15] in a line: CCTE_Mundy_HCI_Cortical_Synap_Neur_Matur_NeuriteLength: CCTE's Synaptogenesis and Neurite Maturation Assay in rat cortical cells for Neurite Length, Mundy Lab (AID 2284214). The procedure, abridged:
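Rat primary cortical cultures, AraC added DIV 5, dosed DIV 7 through DIV 12 […]. Fixed, MAP2/synaptophysin immunostained with Hoechst; neurite length by high-content imaging, fitted in positive direction versus DMSO.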

Assay [16] in a line: CCTE_Mundy_HCI_hN2_NOG_NeuronCount: CCTE's Neurite Outgrowth Assay in human hN2 cells for Neuron Count, Mundy Lab (AID 2284221; active = hit-call score of the fitted dose curve at least 0.9, where 1 is the maximum). A digest of the protocol: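 Read-out is the number of betaIII-tubulin-positive neurons imaged by automated high-content analysis, with DMSO as negative control.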
The nature of assay [17]: CCTE_Deisenroth_DEVTOX-GLR_Pluri_CellCount: Viability Assessment in CCTE's DevTox GLR-Pluri Assay Evaluation of Total Cell Counts, Deisenroth Lab (AID 2284430). The procedure, abridged: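 RUES2-GLR human pluripotent cells, seeded 24 h, then differentiated 48 h with two chemical exposures 24 h apart; 10-point series 1 nM - 200 uM. Fixed, nuclear-stained, imaged (5 fields/well); nuclei count as % change vs 0.2% DMSO.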

Molecules are shown by their SMILES. For some assays here: Most of the hits are listed elsewhere, so they are rarer here than in the full data. Results filed as inconclusive are left out. The entries are a selection whose mix differs from that of the whole data set. Calls of active or inactive are those of the source. Rule for the calls, unless noted: active = hit-call score of the fitted dose curve at least 0.9, where 1 is the maximum; inactive = score below 0.9.

Here are results for 1 compound from PubChem BioAssay (EPA / NIEHS).

For orientation: AC50 means the concentration at which the activity in the assay is half-maximal. As for `CC1=C(/C=C/C(C)=C/C=C/C(C)=C/C(=O)O)C(C)(C)CCC1`, the result in assay [1], in assay [3], in assay [8], in assay [9], in assay [13] and in assay [15] was inactive. The compound was classed as inactive in assay [16]. The half-maximal activity concentration (AC50) is active: 31.7 µM in assay [2]; active: 5 µM in [4]; active: 2.87 µM in assay [5]; active: 9.92 µM in assay [6]; active: 9.92 µM in assay [7]; active: 0.254 µM in [10]. Also, the AC50 in assay [11] is active: 23.9 µM; in assay [12] it was active: 86.1 µM; in assay [14], active: 17 µM; in [17] it was active: 13 µM.
